At least one structure is not confirmed: it was looked up by name or label, or the drawing left a doubt.
Key:
[1] = molecular target: recombinant human Bcl-2 D103Y protein (Homo sapiens (Human), UniProt P10415, D103Y); test: Bcl-2-D103Y Biochemical Assay (TR-FRET); format: binding; details: ratio of IC50
Method: Biological Example: Bcl-2-D103Y Biochemical Assay
(§1) […]. The TR-FRET signals (ex337 nm, em490 nm/520 nm) were read on BMG PHERAstar FSX instrument. The inhibition percentage of Bcl-2 D103Y interaction with its ligand in presence of increasing concentrations of compounds was calculated based on the ratio of fluorescence at 490 nm to that at 520 nm. The IC50 for each compound was derived from fitting the data to the four-parameter logistic equation by Dotmatics.

Chains of the proteins cited; added tags and fusions are not shown.
UniProt P10415, whole entry D103Y: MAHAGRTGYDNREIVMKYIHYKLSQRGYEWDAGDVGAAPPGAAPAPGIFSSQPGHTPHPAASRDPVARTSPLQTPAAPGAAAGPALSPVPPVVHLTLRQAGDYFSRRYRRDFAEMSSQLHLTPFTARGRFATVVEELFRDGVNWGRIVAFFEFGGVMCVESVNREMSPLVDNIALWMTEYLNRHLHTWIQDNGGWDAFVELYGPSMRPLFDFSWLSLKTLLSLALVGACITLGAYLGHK

[2] = tested on: recombinant human Bcl-2-G101V protein; test: Bcl-2-G101V TR-FRET Assay; format: binding; details: for Ratio of Bcl-2 G101V/WT: ratio of biochemical IC50 Bcl-2 G101V / Bcl-2 WT
Method: Biological Example: Bcl-2-G101V TR-FRET Assay
as §1, with “Bcl-2-G101V” for “Bcl-2 D103Y”, “by Graphpad Prism software or” for “by”

SMILES | Ratio of Bcl-2 D103Y/Bcl-2 WT [1] | ratio of IC50 of Bcl-2 G101V/Bcl-2 wt, compared with Example F132b in WO2019210828 and ABT-199 (venetoclax) ([2]; comparison in words) | Ratio of Bcl-2 G101V/WT [2]
COc1ccc(CN2CCN(C3CC4(CCN(c5ccc(C(=O)NS(=O)(=O)c6ccc(NC[C@H]7CC[C@](C)(O)CC7)c([N+](=O)[O-])c6)c(Oc6cnc7[nH]ccc7c6)c5)CC4)C3)C(c3ccccc3C(C)C)C2)cc1 (stereo partly shown) [Example 19, 2-((1H-pyrrolo[2,3-b]pyridin-5-yl)oxy)-N-((4-((((1r,4r)-4-hydroxy-4-methylcyclohexyl)methyl)amino)-3-nitrophenyl)sulfonyl)-4-(2-(2-(2-isopropylphenyl)-4-(4-methoxybenzyl)piperazin-1-yl)-7-azaspiro[3.5]nonan-7-yl)benzamide] | 2.3 | much lower | 7.7
COc1cc(CN2CCN(C3CC4(CCN(c5ccc(C(=O)NS(=O)(=O)c6ccc(NC[C@H]7CC[C@](C)(O)CC7)c([N+](=O)[O-])c6)c(Oc6cnc7[nH]ccc7c6)c5)CC4)C3)C(c3ccccc3C(C)C)C2)cc(OC)c1 (stereo partly shown) [Example 49] | 2.8 |  | 4.2
CC(C)c1ccccc1[C@@H]1CN(Cc2ccc(OC3CC3)c(OC3CC3)c2)CCN1C1CC2(C1)CN(c1ccc(C(=O)NS(=O)(=O)c3ccc(NC[C@H]4CC[C@](C)(O)CC4)c([N+](=O)[O-])c3)c(Oc3cnc4[nH]cc(F)c4c3)c1)C2 [Example 363, 4-(6-((R)-4-(3,4-dicyclopropoxybenzyl)-2-(2-isopropylphenyl)piperazin-1-yl)-2-azaspiro[3.3]heptan-2-yl)-2-((3-fluoro-1H-pyrrolo[2,3-b]pyridin-5-yl)oxy)-N-((4-((((1r,4r)-4-hydroxy-4-methylcyclohexyl)methyl)amino)-3-nitrophenyl)sulfonyl) benzamide] | 0.9 |  | 2.6
